Assay results from the supplement of paper PMC6411743.
± gives the standard deviation of the averaged measurements. This is a selection; strong and weak results do not stand in their true shares.

Chains of the proteins cited; added tags and fusions are not shown. Lines headed by an entry give the natural chain unless they say otherwise; changes in a name come on top.
UniProt Q86V85: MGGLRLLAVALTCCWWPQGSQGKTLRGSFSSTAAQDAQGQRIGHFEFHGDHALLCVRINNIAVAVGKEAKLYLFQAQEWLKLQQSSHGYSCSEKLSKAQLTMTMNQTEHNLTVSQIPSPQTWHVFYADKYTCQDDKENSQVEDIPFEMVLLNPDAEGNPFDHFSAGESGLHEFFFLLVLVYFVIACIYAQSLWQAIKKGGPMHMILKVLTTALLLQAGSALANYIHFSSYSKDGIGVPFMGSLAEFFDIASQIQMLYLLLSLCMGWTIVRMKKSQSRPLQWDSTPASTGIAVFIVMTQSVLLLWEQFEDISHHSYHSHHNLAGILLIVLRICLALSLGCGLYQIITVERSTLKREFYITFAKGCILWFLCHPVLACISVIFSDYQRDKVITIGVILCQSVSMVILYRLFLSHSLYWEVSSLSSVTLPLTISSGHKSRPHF
UniProt Q6WKZ4: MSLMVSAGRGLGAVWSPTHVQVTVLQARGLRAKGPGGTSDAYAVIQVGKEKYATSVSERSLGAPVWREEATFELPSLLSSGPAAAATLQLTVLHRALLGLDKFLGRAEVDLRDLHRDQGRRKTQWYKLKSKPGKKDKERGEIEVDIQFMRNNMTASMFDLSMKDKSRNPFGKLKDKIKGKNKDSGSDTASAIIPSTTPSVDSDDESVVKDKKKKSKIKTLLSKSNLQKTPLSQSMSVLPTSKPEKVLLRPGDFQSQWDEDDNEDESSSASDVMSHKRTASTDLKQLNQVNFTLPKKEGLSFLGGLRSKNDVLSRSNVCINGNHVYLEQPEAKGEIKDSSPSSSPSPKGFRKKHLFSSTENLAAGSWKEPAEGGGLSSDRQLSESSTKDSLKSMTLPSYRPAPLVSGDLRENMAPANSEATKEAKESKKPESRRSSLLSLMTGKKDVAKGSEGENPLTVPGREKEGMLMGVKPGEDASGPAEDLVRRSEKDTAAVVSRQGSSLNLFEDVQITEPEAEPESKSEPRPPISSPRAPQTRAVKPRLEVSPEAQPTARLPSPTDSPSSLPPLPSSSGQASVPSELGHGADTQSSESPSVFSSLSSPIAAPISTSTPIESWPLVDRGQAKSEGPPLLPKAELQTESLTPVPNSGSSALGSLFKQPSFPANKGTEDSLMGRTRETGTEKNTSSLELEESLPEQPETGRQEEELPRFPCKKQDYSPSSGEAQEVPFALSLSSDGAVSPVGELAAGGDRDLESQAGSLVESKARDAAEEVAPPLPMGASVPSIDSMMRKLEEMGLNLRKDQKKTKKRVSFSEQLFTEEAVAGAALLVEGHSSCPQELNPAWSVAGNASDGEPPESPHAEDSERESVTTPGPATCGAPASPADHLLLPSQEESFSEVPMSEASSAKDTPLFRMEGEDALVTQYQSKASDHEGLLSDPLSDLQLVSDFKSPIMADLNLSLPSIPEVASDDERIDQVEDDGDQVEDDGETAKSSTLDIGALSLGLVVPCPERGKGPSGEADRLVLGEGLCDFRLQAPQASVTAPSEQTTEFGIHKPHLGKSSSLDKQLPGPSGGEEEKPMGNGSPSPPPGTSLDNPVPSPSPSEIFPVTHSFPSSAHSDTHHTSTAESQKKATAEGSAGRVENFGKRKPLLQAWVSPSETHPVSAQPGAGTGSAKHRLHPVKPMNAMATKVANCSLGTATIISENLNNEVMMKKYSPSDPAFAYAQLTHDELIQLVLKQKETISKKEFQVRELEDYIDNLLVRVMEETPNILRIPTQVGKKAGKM
UniProt Q7Z7K0: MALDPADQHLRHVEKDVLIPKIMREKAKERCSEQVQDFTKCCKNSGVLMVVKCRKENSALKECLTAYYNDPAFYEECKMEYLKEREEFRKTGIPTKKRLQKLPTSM
UniProt Q86WA8: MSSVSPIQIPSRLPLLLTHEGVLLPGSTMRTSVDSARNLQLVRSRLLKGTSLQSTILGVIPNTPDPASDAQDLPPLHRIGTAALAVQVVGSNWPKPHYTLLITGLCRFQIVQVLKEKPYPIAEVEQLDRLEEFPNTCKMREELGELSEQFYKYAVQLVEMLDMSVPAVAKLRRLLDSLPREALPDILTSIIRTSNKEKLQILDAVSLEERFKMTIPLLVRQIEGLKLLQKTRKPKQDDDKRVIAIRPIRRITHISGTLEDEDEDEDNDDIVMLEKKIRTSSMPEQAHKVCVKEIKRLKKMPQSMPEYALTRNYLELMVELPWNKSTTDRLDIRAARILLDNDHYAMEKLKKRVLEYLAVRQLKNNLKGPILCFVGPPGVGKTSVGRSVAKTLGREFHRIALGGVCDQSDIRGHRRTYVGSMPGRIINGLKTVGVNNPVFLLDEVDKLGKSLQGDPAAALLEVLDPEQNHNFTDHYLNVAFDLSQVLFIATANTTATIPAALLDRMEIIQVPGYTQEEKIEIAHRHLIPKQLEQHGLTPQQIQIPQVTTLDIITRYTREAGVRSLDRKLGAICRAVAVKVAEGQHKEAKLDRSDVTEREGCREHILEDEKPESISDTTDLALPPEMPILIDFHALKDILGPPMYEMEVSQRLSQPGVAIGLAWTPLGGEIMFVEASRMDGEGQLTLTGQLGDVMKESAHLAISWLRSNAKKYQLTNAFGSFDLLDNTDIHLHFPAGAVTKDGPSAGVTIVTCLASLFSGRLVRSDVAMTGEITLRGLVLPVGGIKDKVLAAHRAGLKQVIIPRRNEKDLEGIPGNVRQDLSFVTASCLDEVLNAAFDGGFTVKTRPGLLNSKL
UniProt Q6ZNE5, whole entry: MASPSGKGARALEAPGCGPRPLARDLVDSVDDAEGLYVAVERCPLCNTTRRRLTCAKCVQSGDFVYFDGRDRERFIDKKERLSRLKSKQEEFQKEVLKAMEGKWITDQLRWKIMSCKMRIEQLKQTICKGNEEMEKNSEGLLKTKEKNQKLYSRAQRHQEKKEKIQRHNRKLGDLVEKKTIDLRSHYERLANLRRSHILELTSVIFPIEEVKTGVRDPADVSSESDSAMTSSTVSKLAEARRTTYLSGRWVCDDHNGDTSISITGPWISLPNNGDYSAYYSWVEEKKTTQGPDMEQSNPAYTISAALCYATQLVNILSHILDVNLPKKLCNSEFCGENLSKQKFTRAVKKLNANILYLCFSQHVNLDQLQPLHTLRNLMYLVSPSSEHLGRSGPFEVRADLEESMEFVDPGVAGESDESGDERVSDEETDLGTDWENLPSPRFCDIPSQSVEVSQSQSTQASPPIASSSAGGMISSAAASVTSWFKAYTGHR
UniProt Q7Z2Z1: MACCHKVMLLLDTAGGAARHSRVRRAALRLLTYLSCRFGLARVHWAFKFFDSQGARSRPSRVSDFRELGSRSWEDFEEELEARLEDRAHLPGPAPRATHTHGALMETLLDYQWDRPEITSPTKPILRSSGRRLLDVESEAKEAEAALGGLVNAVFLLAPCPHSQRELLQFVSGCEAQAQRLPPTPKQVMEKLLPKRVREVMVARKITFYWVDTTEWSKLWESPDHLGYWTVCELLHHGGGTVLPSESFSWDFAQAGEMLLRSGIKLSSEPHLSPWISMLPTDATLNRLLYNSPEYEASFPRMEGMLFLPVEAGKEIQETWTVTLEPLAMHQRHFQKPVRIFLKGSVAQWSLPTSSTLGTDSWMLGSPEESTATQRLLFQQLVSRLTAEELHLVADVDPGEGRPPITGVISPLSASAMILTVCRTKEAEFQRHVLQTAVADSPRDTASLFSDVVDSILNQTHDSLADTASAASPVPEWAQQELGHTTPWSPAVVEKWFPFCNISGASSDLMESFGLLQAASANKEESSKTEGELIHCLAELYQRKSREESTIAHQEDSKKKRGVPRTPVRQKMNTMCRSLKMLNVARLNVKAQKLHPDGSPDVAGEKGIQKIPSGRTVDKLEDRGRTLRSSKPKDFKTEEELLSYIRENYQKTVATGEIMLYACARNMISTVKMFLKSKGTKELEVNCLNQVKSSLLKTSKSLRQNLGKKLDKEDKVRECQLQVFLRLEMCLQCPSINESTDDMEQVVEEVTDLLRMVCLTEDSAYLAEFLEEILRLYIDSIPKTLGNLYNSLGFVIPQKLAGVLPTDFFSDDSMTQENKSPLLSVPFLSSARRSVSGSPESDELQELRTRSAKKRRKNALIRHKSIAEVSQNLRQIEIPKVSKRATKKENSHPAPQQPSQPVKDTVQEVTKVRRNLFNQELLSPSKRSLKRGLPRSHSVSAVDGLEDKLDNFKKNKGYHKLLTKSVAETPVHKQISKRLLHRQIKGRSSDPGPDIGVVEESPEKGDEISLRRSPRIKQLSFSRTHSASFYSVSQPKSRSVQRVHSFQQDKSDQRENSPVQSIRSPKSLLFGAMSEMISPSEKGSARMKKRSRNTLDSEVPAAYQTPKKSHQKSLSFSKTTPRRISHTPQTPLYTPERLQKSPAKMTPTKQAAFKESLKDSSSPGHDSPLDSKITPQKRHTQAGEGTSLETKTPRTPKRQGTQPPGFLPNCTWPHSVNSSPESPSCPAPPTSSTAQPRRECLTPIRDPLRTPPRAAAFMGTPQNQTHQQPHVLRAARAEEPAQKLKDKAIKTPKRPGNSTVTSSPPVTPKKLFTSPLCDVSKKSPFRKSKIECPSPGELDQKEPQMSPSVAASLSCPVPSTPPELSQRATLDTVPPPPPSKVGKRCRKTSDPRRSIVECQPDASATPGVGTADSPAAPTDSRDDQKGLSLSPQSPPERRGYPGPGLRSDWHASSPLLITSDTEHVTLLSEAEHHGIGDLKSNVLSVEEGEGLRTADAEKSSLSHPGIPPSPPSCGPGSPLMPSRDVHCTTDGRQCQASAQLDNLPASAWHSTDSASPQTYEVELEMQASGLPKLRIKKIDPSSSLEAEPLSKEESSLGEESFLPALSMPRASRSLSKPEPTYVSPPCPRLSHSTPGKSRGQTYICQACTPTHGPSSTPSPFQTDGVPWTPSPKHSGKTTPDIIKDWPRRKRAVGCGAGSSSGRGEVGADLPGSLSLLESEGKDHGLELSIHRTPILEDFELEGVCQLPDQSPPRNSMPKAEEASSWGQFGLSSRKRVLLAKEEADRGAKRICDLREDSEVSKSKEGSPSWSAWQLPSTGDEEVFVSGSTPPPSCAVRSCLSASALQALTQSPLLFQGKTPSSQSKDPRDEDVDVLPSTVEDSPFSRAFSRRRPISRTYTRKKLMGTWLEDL
UniProt Q6PH81: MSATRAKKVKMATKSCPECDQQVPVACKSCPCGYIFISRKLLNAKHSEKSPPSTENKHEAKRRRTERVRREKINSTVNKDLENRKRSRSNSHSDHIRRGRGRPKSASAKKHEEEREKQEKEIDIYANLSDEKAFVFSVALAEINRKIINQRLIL
UniProt Q7RTV0, whole entry, looked up: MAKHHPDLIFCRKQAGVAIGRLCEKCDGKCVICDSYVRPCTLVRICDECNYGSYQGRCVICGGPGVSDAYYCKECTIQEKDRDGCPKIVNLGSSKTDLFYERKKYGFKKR
UniProt Q86X55: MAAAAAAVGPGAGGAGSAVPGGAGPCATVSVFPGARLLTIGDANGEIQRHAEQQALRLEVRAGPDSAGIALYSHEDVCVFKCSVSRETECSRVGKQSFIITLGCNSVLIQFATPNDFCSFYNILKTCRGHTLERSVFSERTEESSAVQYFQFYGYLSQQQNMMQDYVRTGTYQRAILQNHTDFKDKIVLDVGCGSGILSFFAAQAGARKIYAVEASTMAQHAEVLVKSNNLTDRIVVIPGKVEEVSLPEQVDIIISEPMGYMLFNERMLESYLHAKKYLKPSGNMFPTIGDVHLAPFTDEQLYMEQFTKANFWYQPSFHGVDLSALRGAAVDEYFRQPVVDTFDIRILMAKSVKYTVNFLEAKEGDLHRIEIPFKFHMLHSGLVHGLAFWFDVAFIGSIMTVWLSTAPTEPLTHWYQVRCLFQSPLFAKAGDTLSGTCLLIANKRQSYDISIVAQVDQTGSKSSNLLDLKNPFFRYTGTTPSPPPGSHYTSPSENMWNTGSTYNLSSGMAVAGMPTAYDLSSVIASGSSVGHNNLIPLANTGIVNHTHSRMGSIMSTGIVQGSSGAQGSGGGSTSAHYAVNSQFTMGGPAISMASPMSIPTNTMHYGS
UniProt Q712K3: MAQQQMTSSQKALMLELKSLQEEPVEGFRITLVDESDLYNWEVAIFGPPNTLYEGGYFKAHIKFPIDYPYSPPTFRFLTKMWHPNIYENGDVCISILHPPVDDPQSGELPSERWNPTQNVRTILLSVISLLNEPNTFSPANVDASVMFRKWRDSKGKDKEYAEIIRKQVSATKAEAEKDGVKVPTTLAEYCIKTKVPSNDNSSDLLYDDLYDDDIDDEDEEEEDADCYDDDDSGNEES
UniProt Q7Z4H3: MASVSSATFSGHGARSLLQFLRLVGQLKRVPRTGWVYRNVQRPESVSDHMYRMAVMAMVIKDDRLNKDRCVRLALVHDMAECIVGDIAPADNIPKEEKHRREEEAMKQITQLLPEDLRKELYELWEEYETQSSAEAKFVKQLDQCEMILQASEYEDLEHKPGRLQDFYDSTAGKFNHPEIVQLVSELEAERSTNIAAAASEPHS
UniProt Q86V88: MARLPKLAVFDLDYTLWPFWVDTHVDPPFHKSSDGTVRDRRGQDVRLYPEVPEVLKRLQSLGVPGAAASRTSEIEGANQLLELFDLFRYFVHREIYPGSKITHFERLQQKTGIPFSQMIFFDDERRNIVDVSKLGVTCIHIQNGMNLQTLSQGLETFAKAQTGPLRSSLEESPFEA

Compound: Nc1ncnc2c1ncn2[C@@H]1O[C@H](COP(=O)(O)OP(=O)(O)OP(=O)(O)O)[C@@H](O)[C@H]1O [adenosine triphosphate]
Experiment: NP40-soluble protein abundance relative to vehicle (solubility fold change) (ratio); higher = more soluble protein in presence of ATP
Method in brief: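 In three independent experiments, Jurkat crude lysate made by Dounce homogenisation was treated for 10 min at room temperature and then 3 min at 37 °C with eight concentrations ranging from 0.1 to 10 mM. It was then solubilised with 0.8% NP40 plus benzonase for 60 min at 4 °C and ultracentrifuged. The supernatant was TMT-labelled for LC-MS/MS, and each value is the fold change against the detergent-processed vehicle for the same replicate, using vsn-normalised intensities.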

Target	NP40-soluble protein abundance (concentration: 1mM)	NP40-soluble protein abundance (concentration: 2mM)	NP40-soluble protein abundance (concentration: 4mM)	NP40-soluble protein abundance (concentration: 6mM)	NP40-soluble protein abundance (concentration: 8mM)	NP40-soluble protein abundance (concentration: 10mM)
MON1B (UniProt Q7L1V2)	0.855 ± 0.2	1.02 ± 0.089	1.01 ± 0.068	0.889 ± 0.25	0.89 ± 0.19	1.01 ± 0.07
BLOC1S3 (UniProt Q6QNY0)	0.969 ± 0.045	0.972 ± 0.037	0.949 ± 0.053	0.937 ± 0.045	0.927 ± 0.033	0.894 ± 0.036
MEPCE (UniProt Q7L2J0)	1.1 ± 0.07	1.13 ± 0.066	1.2 ± 0.078	1.32 ± 0.15	1.38 ± 0.1	1.52 ± 0.1
UniProt Q6PJG6	0.989 ± 0.034	0.977 ± 0.066	0.967 ± 0.062	0.963 ± 0.042	0.955 ± 0.049	0.947 ± 0.063
GPR180 (UniProt Q86V85)	0.961 ± 0.033	0.948 ± 0.016	0.912 ± 0.045	0.905 ± 0.048	0.939 ± 0.018	0.935 ± 0.045
USP34 (UniProt Q70CQ2)	1.01 ± 0.048	1.02 ± 0.04	1.04 ± 0.023	0.963 ± 0.05	1.04 ± 0.012	1.01 ± 0.031
RAB11FIP1 (UniProt Q6WKZ4)	0.981 ± 0.051	0.984 ± 0.024	0.979 ± 0.033	1.02 ± 0.03	0.954 ± 0.0055	0.9549 ± 0.0051
CMC1 (UniProt Q7Z7K0)	0.918 ± 0.043	0.926 ± 0.014	0.95 ± 0.047	0.989 ± 0.069	0.879 ± 0.043	0.91 ± 0.089
UniProt Q86SX3 and related entries	0.986 ± 0.13	1.14 ± 0.065	1.2 ± 0.099	1.28 ± 0.073	1.18 ± 0.054	1.25 ± 0.085
UniProt Q7Z3K6 and related entries	1.08 ± 0.05	1.109 ± 0.008	1.14 ± 0.11	1.11 ± 0.035	1.13 ± 0.049	1.14 ± 0.029
UniProt Q7Z7G8 and related entries	0.841 ± 0.083	0.778 ± 0.055	0.804 ± 0.01	0.817 ± 0.0084	0.795 ± 0.15	0.823 ± 0.07
EPM2AIP1 (UniProt Q7L775)	0.97 ± 0.091	0.979 ± 0.11	1.01 ± 0.096	0.941 ± 0.13	1.03 ± 0.12	1.06 ± 0.082
UniProt Q7KYR7 and related entries	1.02 ± 0.051	1.1 ± 0.12	1.02 ± 0.057	1.08 ± 0.097	0.991 ± 0.069	1.06 ± 0.078
UniProt Q86WA8 and related entries	0.939 ± 0.081	0.903 ± 0.042	0.895 ± 0.073	0.85 ± 0.067	0.883 ± 0.03	0.839 ± 0.057
TAOK1 (UniProt Q7L7X3)	1.01 ± 0.042	1.03 ± 0.023	1.1 ± 0.016	1.08 ± 0.048	1.04 ± 0.038	1.01 ± 0.022
UniProt Q6ZNJ1 and related entries	1.03 ± 0.069	1.01 ± 0.06	1.03 ± 0.04	0.956 ± 0.065	1.01 ± 0.027	1.01 ± 0.054
UniProt Q6ZNE5 and related entries	0.954 ± 0.13	1.01 ± 0.027	0.972 ± 0.021	1.02 ± 0.054	0.934 ± 0.11	0.988 ± 0.026
ERI1 (UniProt Q8IV48)	1.03 ± 0.12	1.06 ± 0.062	1.12 ± 0.015	1.11 ± 0.13	1.22 ± 0.05	1.24 ± 0.055
SND1 (UniProt Q7KZF4)	1.01 ± 0.05	1.03 ± 0.043	1.08 ± 0.047	1.16 ± 0.085	1.23 ± 0.055	1.26 ± 0.057
TSPYL5 (UniProt Q86VY4)	1 ± 0.042	1.051 ± 0.0027	1.07 ± 0.024	1.1 ± 0.042	1.119 ± 0.0042	1.11 ± 0.065

Random excerpt: two records from the list, in no set order.
Target	NP40-soluble protein abundance (concentration: 1mM)	NP40-soluble protein abundance (concentration: 2mM)	NP40-soluble protein abundance (concentration: 4mM)	NP40-soluble protein abundance (concentration: 6mM)	NP40-soluble protein abundance (concentration: 8mM)	NP40-soluble protein abundance (concentration: 10mM)
USP34 (UniProt Q70CQ2)	1.01 ± 0.048	1.02 ± 0.04	1.04 ± 0.023	0.963 ± 0.05	1.04 ± 0.012	1.01 ± 0.031
TSPYL5 (UniProt Q86VY4)	1 ± 0.042	1.051 ± 0.0027	1.07 ± 0.024	1.1 ± 0.042	1.119 ± 0.0042	1.11 ± 0.065

The results go on:

Target	NP40-soluble protein abundance (concentration: 1mM)	NP40-soluble protein abundance (concentration: 2mM)	NP40-soluble protein abundance (concentration: 4mM)	NP40-soluble protein abundance (concentration: 6mM)	NP40-soluble protein abundance (concentration: 8mM)	NP40-soluble protein abundance (concentration: 10mM)
UniProt Q6ZN55 and related entries	1.05 ± 0.16	1.03 ± 0.24	1.01 ± 0.21	0.908 ± 0.11	0.97 ± 0.14	0.94 ± 0.13
DARS2 (UniProt Q6PI48)	0.971 ± 0.057	0.98 ± 0.07	0.98 ± 0.045	0.946 ± 0.11	1.02 ± 0.048	0.978 ± 0.053
TICAM1 (UniProt Q8IUC6)	0.964 ± 0.2	1 ± 0.12	0.939 ± 0.059	0.921 ± 0.024	0.88 ± 0.068	0.916 ± 0.089
RSRC2 (UniProt Q7L4I2)	1.19 ± 0.051	1.19 ± 0.07	1.22 ± 0.078	1.29 ± 0.074	1.21 ± 0.1	1.23 ± 0.094
C5orf24 (UniProt Q7Z6I8)	0.963 ± 0.025	0.981 ± 0.029	1.01 ± 0.071	1.01 ± 0.033	0.957 ± 0.037	0.921 ± 0.042
PRPF39 (UniProt Q86UA1)	1.06 ± 0.012	1.04 ± 0.017	1.042 ± 0.0013	0.987 ± 0.052	0.998 ± 0.012	1.03 ± 0.018
UniProt Q7Z2Z1 and related entries	1.07 ± 0.055	1.198 ± 0.0025	1.2 ± 0.1	1.25 ± 0.26	1.12 ± 0.064	1.19 ± 0.094
UniProt Q7Z7F0	0.96 ± 0.027	0.978 ± 0.019	0.977 ± 0.018	0.982 ± 0.029	0.954 ± 0.051	0.951 ± 0.033
UniProt Q7Z7H8 and related entries	1.12 ± 0.07	1.02 ± 0.032	0.973 ± 0.026	0.95 ± 0.16	1.01 ± 0.11	0.939 ± 0.11
C16orf87 (UniProt Q6PH81)	0.975 ± 0.087	0.994 ± 0.068	1.01 ± 0.056	1.09 ± 0.076	0.981 ± 0.093	1 ± 0.13
HSDL2 (UniProt Q6YN16)	0.957 ± 0.057	0.967 ± 0.044	0.948 ± 0.069	0.9537 ± 0.0024	0.916 ± 0.027	0.963 ± 0.041
UniProt Q7RTV0	1.09 ± 0.076	1.105 ± 0.0071	1.12 ± 0.021	1.2 ± 0.047	1.181 ± 0.0046	1.18 ± 0.023
UniProt Q86X55 and related entries	1.02 ± 0.14	1 ± 0.097	0.994 ± 0.11	0.894 ± 0.13	1.02 ± 0.081	0.981 ± 0.051
NT5DC3 (UniProt Q86UY8)	1.01 ± 0.18	1.07 ± 0.092	1.06 ± 0.14	0.986 ± 0.12	1 ± 0.1	1.01 ± 0.078
UniProt Q6UXN9	1.01 ± 0.2	1.01 ± 0.13	1.03 ± 0.1	0.948 ± 0.16	1.05 ± 0.083	1.06 ± 0.084
UniProt Q7L0J3 and related entries	0.995 ± 0.046	0.981 ± 0.012	0.982 ± 0.017	1.01 ± 0.07	0.968 ± 0.076	0.962 ± 0.037
UniProt Q86UW6 and related entries	1.12 ± 0.024	1.13 ± 0.018	1.118 ± 0.0056	1.14 ± 0.064	1.11 ± 0.043	1.142 ± 0.0069
TSEN54 (UniProt Q7Z6J9)	0.972 ± 0.03	0.978 ± 0.03	1 ± 0.012	1.02 ± 0.026	1 ± 0.021	0.965 ± 0.021
UniProt Q7Z3E2	0.967 ± 0.08	0.977 ± 0.023	1.02 ± 0.062	1.04 ± 0.037	0.956 ± 0.077	0.984 ± 0.066
UniProt Q712K3	0.958 ± 0.053	0.953 ± 0.025	0.927 ± 0.045	0.958 ± 0.03	0.919 ± 0.017	0.907 ± 0.027

Target	NP40-soluble protein abundance (concentration: 1mM)	NP40-soluble protein abundance (concentration: 2mM)	NP40-soluble protein abundance (concentration: 4mM)	NP40-soluble protein abundance (concentration: 6mM)	NP40-soluble protein abundance (concentration: 8mM)	NP40-soluble protein abundance (concentration: 10mM)
UniProt Q7Z569 and related entries	0.98 ± 0.025	1.001 ± 0.0095	1.01 ± 0.028	1.03 ± 0.055	0.983 ± 0.033	0.984 ± 0.031
UniProt Q86TN4 and related entries	1.03 ± 0.022	1.08 ± 0.033	1.12 ± 0.049	1.18 ± 0.069	1.17 ± 0.042	1.194 ± 0.011
UniProt Q86TI0 and related entries	1.033 ± 0.0036	1.03 ± 0.026	1.025 ± 0.0096	1.024 ± 0.0068	1.03 ± 0.015	1.02 ± 0.024
DCP2 (UniProt Q8IU60)	1.03 ± 0.013	1.047 ± 0.01	1 ± 0.014	1.06 ± 0.017	1.08 ± 0.02	1.07 ± 0.044
UniProt Q86V59 and related entries	1.07 ± 0.059	1.09 ± 0.12	1.16 ± 0.13	1.11 ± 0.061	1.13 ± 0.15	1.13 ± 0.068
CYB5R4 (UniProt Q7L1T6)	0.993 ± 0.037	0.993 ± 0.063	0.977 ± 0.032	0.982 ± 0.1	1 ± 0.052	1 ± 0.058
UniProt Q86YB8	0.913 ± 0.061	0.953 ± 0.03	0.974 ± 0.084	0.9745 ± 0.0083	0.929 ± 0.043	0.974 ± 0.032
UniProt Q6PIF6	1.08 ± 0.15	1.01 ± 0.058	1.05 ± 0.056	0.976 ± 0.037	1.11 ± 0.03	1.14 ± 0.072
UniProt Q7LBC6	0.982 ± 0.051	0.989 ± 0.012	0.9627 ± 0.0039	1 ± 0.01	0.95 ± 0.034	0.976 ± 0.025
PALB2 (UniProt Q86YC2)	1.12 ± 0.29	1.08 ± 0.27	1 ± 0.14	1.06 ± 0.23	1.11 ± 0.15	1.07 ± 0.23
HDDC2 (UniProt Q7Z4H3)	0.92 ± 0.13	0.903 ± 0.075	0.904 ± 0.097	0.877 ± 0.1	0.892 ± 0.028	0.816 ± 0.17
UniProt Q6PII3	0.941 ± 0.057	0.962 ± 0.02	0.972 ± 0.039	0.942 ± 0.052	1.01 ± 0.072	1.01 ± 0.076
UniProt Q7L2E3-2|H7BXY3 and related entries	0.828 ± 0.031	0.896 ± 0.064	0.944 ± 0.12	0.932 ± 0.059	1.03 ± 0.13	1.12 ± 0.13
UniProt Q86UA6 and related entries	1.04 ± 0.1	1 ± 0.1	0.939 ± 0.12	1 ± 0.12	1.03 ± 0.11	0.927 ± 0.056
UniProt Q86VN1 and related entries	1.01 ± 0.098	0.997 ± 0.054	0.983 ± 0.047	0.951 ± 0.099	0.986 ± 0.052	0.979 ± 0.013
MED13L (UniProt Q71F56)	1.08 ± 0.045	1.04 ± 0.061	1.07 ± 0.11	1.07 ± 0.069	1.05 ± 0.095	1.08 ± 0.09
UniProt Q86U86 and related entries	1.29 ± 0.021	1.348 ± 0.0056	1.42 ± 0.042	1.52 ± 0.1	1.63 ± 0.065	1.66 ± 0.03
ARHGAP30 (UniProt Q7Z6I6)	0.971 ± 0.07	0.977 ± 0.029	0.979 ± 0.038	0.996 ± 0.039	0.958 ± 0.029	0.966 ± 0.031
UniProt Q86V88 and related entries	0.904 ± 0.19	0.91 ± 0.23	0.984 ± 0.29	0.962 ± 0.31	0.933 ± 0.24	0.939 ± 0.3
UniProt Q7Z591 and related entries	1.07 ± 0.082	1.07 ± 0.041	1.08 ± 0.073	1.08 ± 0.063	1.07 ± 0.1	1.07 ± 0.072
